Test results taken from the supplement of paper PMC10849652.
The other results are listed elsewhere or left out.

Sequences of proteins named here, by UniProt entry; tags and fusion partners are left off. A change or cut given only in a name is not applied to a line headed by its entry.
UniProt O75845: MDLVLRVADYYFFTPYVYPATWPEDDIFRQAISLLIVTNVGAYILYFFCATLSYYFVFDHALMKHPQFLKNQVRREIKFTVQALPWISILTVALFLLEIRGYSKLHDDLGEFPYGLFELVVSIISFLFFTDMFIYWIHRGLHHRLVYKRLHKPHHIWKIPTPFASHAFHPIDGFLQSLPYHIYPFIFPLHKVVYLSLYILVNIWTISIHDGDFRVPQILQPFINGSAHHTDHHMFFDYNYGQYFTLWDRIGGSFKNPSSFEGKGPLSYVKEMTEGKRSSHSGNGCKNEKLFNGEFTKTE
UniProt Q9NRG7: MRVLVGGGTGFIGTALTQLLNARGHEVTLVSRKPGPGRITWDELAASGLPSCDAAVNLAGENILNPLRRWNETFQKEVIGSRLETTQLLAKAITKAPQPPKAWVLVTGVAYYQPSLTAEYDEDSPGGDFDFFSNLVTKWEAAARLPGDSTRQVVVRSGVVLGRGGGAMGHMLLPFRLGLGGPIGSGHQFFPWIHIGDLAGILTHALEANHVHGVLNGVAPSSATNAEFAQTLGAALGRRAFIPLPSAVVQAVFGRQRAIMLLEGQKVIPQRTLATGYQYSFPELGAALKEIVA
UniProt O95486: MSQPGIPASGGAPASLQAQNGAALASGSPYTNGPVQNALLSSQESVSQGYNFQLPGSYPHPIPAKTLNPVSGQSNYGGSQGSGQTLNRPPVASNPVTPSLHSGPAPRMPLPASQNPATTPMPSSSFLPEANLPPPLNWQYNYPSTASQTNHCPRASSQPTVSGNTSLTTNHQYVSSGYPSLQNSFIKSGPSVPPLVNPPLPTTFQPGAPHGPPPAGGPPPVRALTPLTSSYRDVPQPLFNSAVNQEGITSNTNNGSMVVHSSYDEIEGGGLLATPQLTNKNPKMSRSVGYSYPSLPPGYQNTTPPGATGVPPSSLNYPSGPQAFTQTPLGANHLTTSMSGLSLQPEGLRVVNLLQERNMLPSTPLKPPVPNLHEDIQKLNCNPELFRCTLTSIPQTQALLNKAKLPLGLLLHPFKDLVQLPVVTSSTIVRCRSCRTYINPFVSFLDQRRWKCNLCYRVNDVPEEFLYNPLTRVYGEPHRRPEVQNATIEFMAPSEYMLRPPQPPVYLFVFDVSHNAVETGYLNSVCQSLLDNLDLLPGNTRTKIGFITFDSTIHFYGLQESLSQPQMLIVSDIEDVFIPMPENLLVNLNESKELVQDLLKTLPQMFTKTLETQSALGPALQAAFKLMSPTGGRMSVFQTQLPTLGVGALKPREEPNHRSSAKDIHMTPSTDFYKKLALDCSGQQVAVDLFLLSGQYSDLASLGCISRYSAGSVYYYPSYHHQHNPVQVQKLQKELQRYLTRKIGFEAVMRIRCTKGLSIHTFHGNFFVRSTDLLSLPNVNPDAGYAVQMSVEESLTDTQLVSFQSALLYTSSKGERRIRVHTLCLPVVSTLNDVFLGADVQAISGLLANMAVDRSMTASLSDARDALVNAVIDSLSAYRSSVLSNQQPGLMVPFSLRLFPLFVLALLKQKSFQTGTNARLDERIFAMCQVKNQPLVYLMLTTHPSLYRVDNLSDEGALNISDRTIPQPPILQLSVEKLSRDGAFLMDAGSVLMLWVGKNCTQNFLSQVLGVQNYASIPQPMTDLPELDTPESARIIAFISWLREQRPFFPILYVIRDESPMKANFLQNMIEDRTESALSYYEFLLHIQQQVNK
UniProt O94855: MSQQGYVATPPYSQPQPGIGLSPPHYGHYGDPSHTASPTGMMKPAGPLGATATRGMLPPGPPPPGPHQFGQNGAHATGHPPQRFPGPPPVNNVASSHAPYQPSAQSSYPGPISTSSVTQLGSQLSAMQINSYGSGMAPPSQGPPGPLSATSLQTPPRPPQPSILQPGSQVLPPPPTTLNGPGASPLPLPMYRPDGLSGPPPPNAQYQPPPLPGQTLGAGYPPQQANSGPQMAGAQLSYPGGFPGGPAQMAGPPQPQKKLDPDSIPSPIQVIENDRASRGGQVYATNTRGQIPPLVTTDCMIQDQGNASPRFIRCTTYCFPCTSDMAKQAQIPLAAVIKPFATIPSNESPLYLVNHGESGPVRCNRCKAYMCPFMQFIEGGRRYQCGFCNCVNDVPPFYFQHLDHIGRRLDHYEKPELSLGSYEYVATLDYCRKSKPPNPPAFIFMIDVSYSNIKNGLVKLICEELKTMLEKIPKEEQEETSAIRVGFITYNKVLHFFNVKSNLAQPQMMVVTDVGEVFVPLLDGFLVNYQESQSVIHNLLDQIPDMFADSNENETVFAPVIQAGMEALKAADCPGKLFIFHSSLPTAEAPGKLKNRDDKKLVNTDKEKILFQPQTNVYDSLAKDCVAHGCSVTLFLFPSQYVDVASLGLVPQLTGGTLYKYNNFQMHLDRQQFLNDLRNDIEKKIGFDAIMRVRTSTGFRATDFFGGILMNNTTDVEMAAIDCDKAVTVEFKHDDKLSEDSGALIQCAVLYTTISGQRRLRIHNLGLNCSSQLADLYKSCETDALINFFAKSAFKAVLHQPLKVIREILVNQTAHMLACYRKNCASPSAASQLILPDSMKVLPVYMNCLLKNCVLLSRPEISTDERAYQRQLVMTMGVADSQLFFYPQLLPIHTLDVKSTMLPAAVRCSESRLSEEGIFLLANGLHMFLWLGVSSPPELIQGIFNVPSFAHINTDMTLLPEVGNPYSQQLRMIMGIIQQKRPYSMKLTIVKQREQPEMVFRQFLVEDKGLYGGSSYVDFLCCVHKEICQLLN
UniProt Q9NTJ5: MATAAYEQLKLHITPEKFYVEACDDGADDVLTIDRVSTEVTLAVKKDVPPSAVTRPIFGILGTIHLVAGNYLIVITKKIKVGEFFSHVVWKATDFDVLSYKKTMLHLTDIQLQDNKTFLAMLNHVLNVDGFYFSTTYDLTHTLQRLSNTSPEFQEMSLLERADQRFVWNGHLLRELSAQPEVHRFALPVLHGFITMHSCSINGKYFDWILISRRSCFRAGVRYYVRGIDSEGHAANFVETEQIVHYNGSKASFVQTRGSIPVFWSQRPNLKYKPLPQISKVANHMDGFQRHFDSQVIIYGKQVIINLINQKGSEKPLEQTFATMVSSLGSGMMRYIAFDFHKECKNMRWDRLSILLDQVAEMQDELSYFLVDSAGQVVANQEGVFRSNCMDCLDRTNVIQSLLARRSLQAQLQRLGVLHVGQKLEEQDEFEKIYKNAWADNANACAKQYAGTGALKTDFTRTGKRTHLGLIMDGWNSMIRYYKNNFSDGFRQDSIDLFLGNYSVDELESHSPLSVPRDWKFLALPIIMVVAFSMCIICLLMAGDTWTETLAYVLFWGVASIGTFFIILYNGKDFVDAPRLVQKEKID
UniProt O14521: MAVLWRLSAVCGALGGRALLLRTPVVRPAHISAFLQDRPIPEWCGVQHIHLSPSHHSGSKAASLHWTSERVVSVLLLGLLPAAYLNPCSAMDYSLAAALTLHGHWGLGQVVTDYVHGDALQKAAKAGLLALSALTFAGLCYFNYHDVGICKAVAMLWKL
UniProt Q8WWV3: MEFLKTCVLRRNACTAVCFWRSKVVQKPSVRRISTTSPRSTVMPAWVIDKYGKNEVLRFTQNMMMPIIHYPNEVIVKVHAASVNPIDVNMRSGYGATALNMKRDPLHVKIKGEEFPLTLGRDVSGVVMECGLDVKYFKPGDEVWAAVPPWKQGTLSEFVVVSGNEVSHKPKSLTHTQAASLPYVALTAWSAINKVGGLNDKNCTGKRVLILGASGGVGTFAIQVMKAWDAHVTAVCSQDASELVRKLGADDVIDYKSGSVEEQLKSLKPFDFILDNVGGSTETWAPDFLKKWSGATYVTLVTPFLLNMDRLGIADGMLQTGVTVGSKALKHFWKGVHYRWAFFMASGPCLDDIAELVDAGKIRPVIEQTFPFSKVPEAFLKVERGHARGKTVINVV
UniProt O94979: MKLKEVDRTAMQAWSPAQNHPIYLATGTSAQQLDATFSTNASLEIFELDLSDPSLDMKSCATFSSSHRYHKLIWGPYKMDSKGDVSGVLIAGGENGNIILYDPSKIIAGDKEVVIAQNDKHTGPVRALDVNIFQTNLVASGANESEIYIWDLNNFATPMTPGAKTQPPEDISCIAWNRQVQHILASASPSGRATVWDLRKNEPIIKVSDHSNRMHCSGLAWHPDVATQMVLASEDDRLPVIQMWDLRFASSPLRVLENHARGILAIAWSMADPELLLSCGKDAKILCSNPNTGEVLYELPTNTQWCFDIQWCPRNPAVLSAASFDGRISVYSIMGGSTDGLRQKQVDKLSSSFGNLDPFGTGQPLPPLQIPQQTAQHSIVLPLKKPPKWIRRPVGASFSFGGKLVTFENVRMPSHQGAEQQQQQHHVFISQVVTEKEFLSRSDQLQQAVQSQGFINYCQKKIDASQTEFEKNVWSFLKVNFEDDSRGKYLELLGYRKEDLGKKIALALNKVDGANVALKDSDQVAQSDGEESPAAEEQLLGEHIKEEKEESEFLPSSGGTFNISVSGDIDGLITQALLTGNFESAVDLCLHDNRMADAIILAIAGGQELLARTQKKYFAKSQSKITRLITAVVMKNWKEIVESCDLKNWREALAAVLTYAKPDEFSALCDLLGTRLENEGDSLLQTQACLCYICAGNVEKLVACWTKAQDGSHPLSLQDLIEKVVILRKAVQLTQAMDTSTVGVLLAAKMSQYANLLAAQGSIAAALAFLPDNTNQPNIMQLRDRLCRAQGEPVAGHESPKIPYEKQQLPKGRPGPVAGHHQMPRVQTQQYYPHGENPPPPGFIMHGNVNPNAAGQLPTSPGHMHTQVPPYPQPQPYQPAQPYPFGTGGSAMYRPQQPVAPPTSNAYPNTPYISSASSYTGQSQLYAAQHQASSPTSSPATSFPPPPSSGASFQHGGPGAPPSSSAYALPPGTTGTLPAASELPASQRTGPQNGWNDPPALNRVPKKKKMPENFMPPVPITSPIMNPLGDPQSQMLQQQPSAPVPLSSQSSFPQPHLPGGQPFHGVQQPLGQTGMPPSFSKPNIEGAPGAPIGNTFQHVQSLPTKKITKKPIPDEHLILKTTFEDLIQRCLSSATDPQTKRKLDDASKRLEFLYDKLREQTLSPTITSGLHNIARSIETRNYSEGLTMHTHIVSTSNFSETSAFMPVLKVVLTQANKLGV
UniProt O95487: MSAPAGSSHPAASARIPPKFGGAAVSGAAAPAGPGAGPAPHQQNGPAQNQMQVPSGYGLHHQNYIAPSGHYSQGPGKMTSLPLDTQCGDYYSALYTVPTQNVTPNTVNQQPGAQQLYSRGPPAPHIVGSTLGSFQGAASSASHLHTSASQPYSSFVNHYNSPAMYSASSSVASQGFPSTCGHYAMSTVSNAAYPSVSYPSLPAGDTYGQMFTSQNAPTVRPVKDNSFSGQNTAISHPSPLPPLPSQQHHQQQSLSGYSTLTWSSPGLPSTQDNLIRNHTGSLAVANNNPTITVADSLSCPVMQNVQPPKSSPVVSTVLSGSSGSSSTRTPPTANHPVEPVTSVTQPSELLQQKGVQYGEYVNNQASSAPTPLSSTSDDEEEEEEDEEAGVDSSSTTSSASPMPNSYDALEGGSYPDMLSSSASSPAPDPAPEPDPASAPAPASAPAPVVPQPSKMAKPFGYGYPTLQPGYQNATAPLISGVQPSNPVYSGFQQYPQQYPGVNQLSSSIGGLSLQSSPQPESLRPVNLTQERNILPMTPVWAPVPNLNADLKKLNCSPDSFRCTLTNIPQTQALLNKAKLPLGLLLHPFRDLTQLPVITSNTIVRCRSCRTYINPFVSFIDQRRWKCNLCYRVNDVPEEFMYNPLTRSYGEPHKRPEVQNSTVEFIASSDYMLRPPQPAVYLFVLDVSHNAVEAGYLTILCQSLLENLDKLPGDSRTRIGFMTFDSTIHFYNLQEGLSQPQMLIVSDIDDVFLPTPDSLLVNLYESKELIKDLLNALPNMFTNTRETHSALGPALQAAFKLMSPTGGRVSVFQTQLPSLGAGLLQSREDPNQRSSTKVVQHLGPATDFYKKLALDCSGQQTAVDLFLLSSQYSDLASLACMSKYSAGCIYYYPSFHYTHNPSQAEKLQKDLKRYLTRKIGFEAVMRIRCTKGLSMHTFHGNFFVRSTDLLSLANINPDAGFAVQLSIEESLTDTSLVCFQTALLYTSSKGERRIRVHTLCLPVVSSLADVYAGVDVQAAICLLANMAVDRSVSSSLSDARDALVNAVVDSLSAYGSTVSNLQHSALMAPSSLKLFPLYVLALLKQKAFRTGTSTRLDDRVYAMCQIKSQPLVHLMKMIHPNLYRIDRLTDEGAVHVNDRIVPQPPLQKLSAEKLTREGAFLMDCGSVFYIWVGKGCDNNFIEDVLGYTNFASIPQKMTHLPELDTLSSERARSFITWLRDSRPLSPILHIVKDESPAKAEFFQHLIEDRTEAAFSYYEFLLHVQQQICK

Tests used:
Assay in all cases: log2 fold change, soluble protein after heating vs DMSO (PISA); higher = thermal stabilisation; K562 cells, 10 uM, 30 min; active = over 0.2 and 3.5 SD of the protein, either way, in both replicates (recomputed)
[1] = compound: CN1CCN(CCOc2cc(OC3CCOCC3)c3c(Nc4c(Cl)ccc5c4OCO5)ncnc3c2)CC1 [saracatinib]
Method in brief: (§1)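 Thermal stability values are relative to control samples and come from duplicates. They are expressed as log2 fold changes. For measurement, K562 cells (2×10^6 cells/mL) received 10 μM compound for 30 min, and aliquots were heated for 3 min over 48°C-58°C, pooled, and extracted at 4°C in PBS with 0.5% NP-40. Soluble protein, the supernatant after 21,000xg for 90 min, was quantified by TMTpro 16plex LC-MS/MS with equalised channel sums.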

[2] = compound: CN1CCN(c2nc(C3=C(c4c[nH]c5ccccc45)C(=O)NC3=O)c3ccccc3n2)CC1 [sotrastaurin]
Method in brief: as §1

[3] = compound: CN1CCc2c(c3ccccc3n2Cc2ccc(C(=O)NO)cc2)C1 [Tubastatin A]
Method in brief: as §1

[4] = compound: CNC(=O)C1=CC=CC=C1NC2=NC(=NC=C2Cl)NC3=C(C=C(C=C3)N4CCOCC4)OC
Method in brief: as §1

[5] = compound: CNC(=O)c1ccc(Nc2ncc(C(F)(F)F)c(NCc3nccnc3N(C)S(C)(=O)=O)n2)cc1 [defactinib]
Method in brief: as §1

[6] = compound: CNCc1ccc(-c2[nH]c3cc(F)cc4c3c2CCNC4=O)cc1 [rucaparib]
Method in brief: as §1

[7] = compound: CNc1nc(-c2ccc3c(N)n[nH]c3c2)cc(N2C[C@@H](C(=O)NC3CCCCC3)CC[C@H]2C)n1
Method in brief: as §1

[8] = compound: COC(=O)N[C@@H](C)CNc1nccc(-c2cn(C(C)C)nc2-c2cc(Cl)cc(NS(C)(=O)=O)c2F)n1 [encorafenib]
Method in brief: as §1

[9] = compound: COC(=O)[C@H](CCSC)NC(=O)C1=C(C=C(C=C1)NC[C@H](CS)N)C2=CC=CC=C2
Method in brief: as §1

[10] = compound: COC1=CC=C(C=C1)CN2C=CC3=C2C=C(C=C3)C(=O)NO
Method in brief: as §1

[11] = compound: CON(C)C(=O)N1N=C(c2cc(F)ccc2F)S[C@@]1(CCCN)c1ccccc1 [filanesib]
Method in brief: as §1

[12] = compound: CO[C@H]1C[C@@H]2CC[C@@H](C)[C@@](O)(O2)C(=O)C(=O)N2CCCC[C@H]2C(=O)O[C@H]([C@H](C)C[C@@H]2CC[C@H](n3cnnn3)[C@H](OC)C2)CC(=O)[C@H](C)/C=C(\C)[C@@H](O)[C@@H](OC)C(=O)[C@H](C)C[C@H](C)/C=C/C=C/C=C/1C [zotarolimus]
Method in brief: as §1

[13] = compound: COc1cc(C(=O)O)ccc1NC(=O)[C@@H]1N[C@@H](CC(C)(C)C)[C@](C#N)(c2ccc(Cl)cc2F)[C@H]1c1cccc(Cl)c1F [idasanutlin]
Method in brief: as §1

[14] = compound: COc1cc(Nc2ncc3c(n2)-c2ccc(Cl)cc2C(c2c(F)cccc2OC)=NC3)ccc1C(=O)O [alisertib]
Method in brief: as §1

[15] = compound: COc1cc2nc(-c3cc(F)ccc3O)nc(N[C@@H]3CNC[C@H]3C(C)(C)O)c2cc1OC
Method in brief: as §1

[16] = compound: COc1cc2ncnc(Nc3ccc(F)c(Cl)c3)c2cc1OCCCN1CCOCC1 [gefitinib]
Method in brief: as §1

[17] = compound: COc1cccc2cc(-c3nc([C@H]4CC[C@H](C(=O)O)CC4)n4ncnc(N)c34)[nH]c12
Method in brief: as §1

[18] = compound: CS(=O)(=O)CCNCc1ccc(-c2ccc3ncnc(Nc4ccc(OCc5cccc(F)c5)c(Cl)c4)c3c2)o1 [lapatinib]
Method in brief: as §1

[19] = compound: CS(=O)(=O)N1CCN(Cc2cc3nc(-c4cccc5[nH]ncc45)nc(N4CCOCC4)c3s2)CC1 [pictilisib]
Method in brief: as §1

[20] = compound: CN1CC[C@H](c2c(O)cc(O)c3c(=O)cc(-c4ccccc4Cl)oc23)[C@H](O)C1 [alvocidib]
Method in brief: as §1

| Target | log2 fold change [1] | log2 fold change [2] | log2 fold change [3] | log2 fold change [4] | log2 fold change [5] | log2 fold change [6] | log2 fold change [7] | log2 fold change [8] | log2 fold change [9] | log2 fold change [10] | log2 fold change [11] | log2 fold change [12] | log2 fold change [13] | log2 fold change [14] | log2 fold change [15] | log2 fold change [16] | log2 fold change [17] | log2 fold change [18] | log2 fold change [19] | log2 fold change [20] |
| --- | --- | --- | --- | --- | --- | --- | --- | --- | --- | --- | --- | --- | --- | --- | --- | --- | --- | --- | --- | --- |
| SCCPDH (UniProt Q8NBX0) | inactive: -0.063 | inactive: 0.1 | inactive: -0.078 | inactive: 0.206 | inactive: 0.121 | inactive: -0.081 | inactive: 0.183 | inactive: -0.041 | inactive: 0.002 | active: 0.436 | inactive: 0.139 | inactive: 0.349 | inactive: 0.025 | inactive: -0.058 | inactive: -0.026 | inactive: -0.016 | inactive: 0.076 | inactive: 0.015 | inactive: 0.135 |  |
| SC5D (UniProt O75845) | inactive: -0.018 | inactive: -0.005 | inactive: 0.002 | inactive: -0.005 | inactive: -0.009 | inactive: -0.134 | inactive: 0.022 | inactive: -0.038 | inactive: 0.088 |  | inactive: -0.065 | inactive: -0.07 | inactive: -0.144 | inactive: -0.017 | inactive: 0.011 | inactive: 0.002 | inactive: 0.071 | inactive: -0.046 | inactive: 0.108 | inactive: -0.001 |
| SEC14L1 isoform 2 (UniProt Q92503) | inactive: 0.097 | inactive: -0.021 | inactive: -0.096 | inactive: 0.144 | inactive: 0.149 | inactive: 0.268 | inactive: -0.057 | inactive: -0.038 | inactive: 0 |  | inactive: 0.04 | inactive: -0.353 |  |  |  |  |  |  | inactive: 0.072 | inactive: -0.019 |
| SDR39U1 (UniProt Q9NRG7) | inactive: -0.011 | inactive: 0.356 | inactive: -0.052 | inactive: 0.729 | inactive: 0.453 | inactive: -0.105 | inactive: 1.16 | inactive: -0.157 | inactive: -0.367 |  | inactive: -0.043 | inactive: -0.611 | inactive: -0.346 | inactive: -0.246 | inactive: -0.165 | inactive: 0.286 | inactive: -0.258 | inactive: 1.16 | inactive: 0.087 | inactive: 0.1 |
| SEC24A (UniProt O95486) | inactive: 0.002 | inactive: -0.055 | inactive: 0.03 | inactive: 0.032 | inactive: -0.013 | inactive: 0.002 | inactive: -0.033 | inactive: 0.091 | inactive: -0.009 | inactive: 0.029 | inactive: -0.083 | inactive: 0.033 | inactive: -0.087 | inactive: -0.002 | inactive: -0.004 | inactive: -0.028 | inactive: -0.016 | inactive: -0.021 | inactive: -0.077 |  |
| SEC24D isoform 2 (UniProt O94855) | inactive: 0.017 | inactive: -0.09 | inactive: 0.034 | inactive: 0.039 | inactive: -0.042 | inactive: -0.035 | inactive: -0.085 | inactive: 0.062 | inactive: -0.039 | inactive: 0.065 | inactive: 0.035 | inactive: 0.017 | inactive: 0.003 | inactive: -0.053 | inactive: 0.014 | inactive: 0.008 | inactive: 0.013 | inactive: 0.011 | inactive: -0.024 | inactive: -0.035 |
| SDAD1 (UniProt Q9NVU7) | inactive: -0.042 | inactive: 0.038 |  |  |  | inactive: 0.107 | inactive: 0.004 | inactive: 0.116 |  | inactive: 0.017 | inactive: -0.074 | inactive: 0.115 | inactive: 0.087 | inactive: 0.002 |  | inactive: 0.287 | inactive: 0.072 |  | inactive: 0.212 | inactive: 0.069 |
| SDHB, A0A087WWT1 | inactive: -0.143 | inactive: 0.088 |  | inactive: 0.053 | inactive: -0.002 | inactive: 0.03 | inactive: -0.228 | inactive: -0.055 | inactive: 0.013 | inactive: -0.11 | inactive: -0.011 | inactive: -0.116 | inactive: 0.031 | inactive: 0.119 | inactive: 0.07 |  | inactive: -0.023 | inactive: -0.148 | inactive: 0.059 | inactive: 0.059 |
| SCLY (UniProt Q96I15) | inactive: 0.041 | inactive: 0.035 | inactive: -0.019 | inactive: -0.084 | inactive: -0.036 | inactive: -0.028 | inactive: -0.037 | inactive: -0.007 | inactive: 0.01 | inactive: -0.001 | inactive: -0.011 | inactive: 0.029 | inactive: 0.012 | inactive: -0.027 | inactive: 0.055 | inactive: -0.002 | inactive: 0.029 | inactive: 0.023 | inactive: 0.031 | inactive: -0.03 |
| SACM1L (UniProt Q9NTJ5) | inactive: 0.004 | inactive: 0.003 | inactive: -0.026 | inactive: 0.042 | inactive: -0.08 | inactive: -0.062 | inactive: 0.007 | inactive: 0.034 | inactive: -0.046 | inactive: 0.044 | inactive: -0.081 | inactive: 0.029 | inactive: -0.027 | inactive: -0.05 | inactive: -0.039 | inactive: 0.086 | inactive: 0.023 | inactive: 0.028 | inactive: -0.038 |  |
| RSRC2 (UniProt Q7L4I2) | inactive: 0.015 | inactive: 0.049 | inactive: -0.055 | inactive: -0.125 | inactive: -0.048 | inactive: -0.004 | inactive: -0.016 | inactive: -0.005 | inactive: 0.024 | inactive: 0.033 | inactive: 0.066 | inactive: -0.002 | inactive: 0.048 | inactive: -0.102 | inactive: 0.034 | inactive: 0.005 | inactive: 0.022 | inactive: -0.021 | inactive: 0.011 |  |
| SDHD (UniProt O14521) | inactive: 0.091 | inactive: 0.017 | inactive: -0.033 | inactive: 0.146 | inactive: 0.023 | inactive: 0.054 | inactive: -0.072 | inactive: -0.081 | inactive: 0.177 |  | inactive: 0.062 | inactive: -0.032 | inactive: -0.115 | inactive: 0.026 | inactive: -0.057 | inactive: 0.062 | inactive: 0.012 | inactive: 0.005 | inactive: 0.218 | inactive: -0.081 |
| RTN4IP1 (UniProt Q8WWV3) | inactive: -0.264 | inactive: 0.43 | active: 0.611 | inactive: -0.066 | inactive: -0.157 | inactive: -0.178 | inactive: -0.069 | inactive: 0.02 | inactive: 0.007 | inactive: 0.206 | inactive: -0.081 | inactive: 0.097 | active: 1.17 | inactive: -0.22 | inactive: -0.013 | inactive: 0.125 | inactive: 0.256 | inactive: 0.003 | inactive: -0.003 |  |
| SEC31A (UniProt O94979) | inactive: -0.086 | inactive: -0.084 | inactive: 0.019 | inactive: 0.043 | inactive: -0.036 | inactive: 0.002 | inactive: -0.015 | inactive: 0.062 | inactive: -0.03 | inactive: 0.01 | inactive: 0.063 | inactive: 0.029 | inactive: -0.039 | inactive: 0.006 | inactive: 0.211 | inactive: 0.008 | inactive: -0.01 | inactive: -0.036 | inactive: -0.002 |  |
| SARAF (UniProt Q96BY9) | inactive: 0.12 | inactive: 0.03 | inactive: 0.105 |  | inactive: -0.177 | inactive: -0.15 | inactive: -0.231 | inactive: -0.221 | inactive: -0.056 |  | inactive: 0.266 | inactive: 0.043 | inactive: 0.104 |  | inactive: -0.439 |  |  | inactive: 0.054 | inactive: -0.007 | inactive: -0.068 |
| SEC24B isoform 3 (UniProt O95487) | inactive: -0.027 | inactive: -0.058 | inactive: 0.168 |  | inactive: -0.032 | inactive: 0.17 | inactive: 0.001 | inactive: 0.049 | inactive: -0.064 | inactive: 0.011 | inactive: 0.141 | inactive: -0.043 | inactive: -0.056 | inactive: 0.049 | inactive: -0.014 |  | inactive: 0.004 | inactive: 0.061 | inactive: 0.099 | inactive: -0.03 |
| RUFY1 (UniProt Q96T51) | inactive: -0.037 | inactive: -0.174 | inactive: -0.012 | inactive: 0.045 | inactive: -0.071 | inactive: 0.032 | inactive: -0.09 | inactive: 0.077 | inactive: -0.02 | inactive: -0.015 | inactive: 0.005 | inactive: 0.056 | inactive: -0.049 | inactive: 0.047 | inactive: 0.02 | inactive: -0.004 | inactive: -0.053 | inactive: -0.035 | inactive: -0.009 |  |

Part of the list above, in CSV form:
Target,log2 fold change [1],log2 fold change [2],log2 fold change [3],log2 fold change [4],log2 fold change [5],log2 fold change [6],log2 fold change [7],log2 fold change [8],log2 fold change [9],log2 fold change [10],log2 fold change [11],log2 fold change [12],log2 fold change [13],log2 fold change [14],log2 fold change [15],log2 fold change [16],log2 fold change [17],log2 fold change [18],log2 fold change [19],log2 fold change [20]
SCCPDH (UniProt Q8NBX0),inactive: -0.063,inactive: 0.1,inactive: -0.078,inactive: 0.206,inactive: 0.121,inactive: -0.081,inactive: 0.183,inactive: -0.041,inactive: 0.002,active: 0.436,inactive: 0.139,inactive: 0.349,inactive: 0.025,inactive: -0.058,inactive: -0.026,inactive: -0.016,inactive: 0.076,inactive: 0.015,inactive: 0.135,
RUFY1 (UniProt Q96T51),inactive: -0.037,inactive: -0.174,inactive: -0.012,inactive: 0.045,inactive: -0.071,inactive: 0.032,inactive: -0.09,inactive: 0.077,inactive: -0.02,inactive: -0.015,inactive: 0.005,inactive: 0.056,inactive: -0.049,inactive: 0.047,inactive: 0.02,inactive: -0.004,inactive: -0.053,inactive: -0.035,inactive: -0.009,
